Experiment [1] addresses MltG from Mycobacterium abscessus, N-terminal-truncated (residues 85-428) (Mycobacterium abscessus) (UniProt B1MCF7). Kind of experiment: SEC; Superdex 200 Increase 10/300GL, 20 mM Tris-HCl (pH 8.0), 150 mM NaCl; elution at roughly 15.5 ml between ovalbumin (44 kDa) and myoglobin (17 kDa); both purified. (In general: In gel filtration, larger molecules generally elute earlier.)

For experiment [2] the target is unchanged. Kind of experiment: SEC-MALS; Superdex 200 10/300, 20 mM Tris-HCl (pH 8.0), 150 mM NaCl, room temperature, flow rate 0.4 ml/min; DAWN-TREOS MALS detector; both purified.

Results are given in words; binding and its absence hold for the method and conditions named. Where a sequence is shown, tags or fusion partners need not be part of it.

B1: MltG from Mycobacterium abscessus, N-terminal-truncated (residues 85-428) (domain or fragment, UniProt B1MCF7 85-428)
chain: VTDYSGSGVKDFVFEVHRGDTTKVIGQRLKDEGVVATPSAFTDAAAGNQAIAAIQPGFYKLRTKIAGKEAVARLAEQDNRVGLLVIPEGRQLDDVSAVSNGAVTEGIFTLIARASCVDLDGDKHCVAASDLRQAATTASQGELDVPDWASNGVNAVRDDHRRIEGLIAAGRWDFDPMAEPEQILASLIRESNAQYQQLGLLSSDAAGLSPYQVLVVASLLQREAKPRDFAKVARVVYNRLAKHQKLEFDSTVNYPLDRQEVATTDEDRERKTLWNTYVSQGLPGTPISSPSPEALQAAERPESGDWLYFVTIDAEGTTLFTADYNEHLANIELAKKNGILDSAR
On to B1, for which the binding result in experiment [1] and in experiment [2] was “no binding” in each case.

For the origin of these results see publication PMC11533991.
